Results as given in the supplement of paper PMC10849652.
This is one part of the list.

Sequences of proteins named here, by UniProt entry; tags and fusion partners are left off. A change or cut given only in a name is not applied to a line headed by its entry.
UniProt Q9Y587: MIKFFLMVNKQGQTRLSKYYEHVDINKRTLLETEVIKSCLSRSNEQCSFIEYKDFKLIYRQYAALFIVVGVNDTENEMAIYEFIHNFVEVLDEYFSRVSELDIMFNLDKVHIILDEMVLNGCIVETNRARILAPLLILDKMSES
UniProt Q96BI3, whole entry, looked up: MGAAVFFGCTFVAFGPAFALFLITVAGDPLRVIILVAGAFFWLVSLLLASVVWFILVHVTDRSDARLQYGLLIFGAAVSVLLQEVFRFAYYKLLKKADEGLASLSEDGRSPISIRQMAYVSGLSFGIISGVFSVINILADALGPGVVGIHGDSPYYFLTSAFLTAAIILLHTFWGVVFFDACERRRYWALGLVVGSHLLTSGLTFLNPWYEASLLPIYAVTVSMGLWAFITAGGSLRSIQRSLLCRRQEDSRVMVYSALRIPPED
UniProt P98171: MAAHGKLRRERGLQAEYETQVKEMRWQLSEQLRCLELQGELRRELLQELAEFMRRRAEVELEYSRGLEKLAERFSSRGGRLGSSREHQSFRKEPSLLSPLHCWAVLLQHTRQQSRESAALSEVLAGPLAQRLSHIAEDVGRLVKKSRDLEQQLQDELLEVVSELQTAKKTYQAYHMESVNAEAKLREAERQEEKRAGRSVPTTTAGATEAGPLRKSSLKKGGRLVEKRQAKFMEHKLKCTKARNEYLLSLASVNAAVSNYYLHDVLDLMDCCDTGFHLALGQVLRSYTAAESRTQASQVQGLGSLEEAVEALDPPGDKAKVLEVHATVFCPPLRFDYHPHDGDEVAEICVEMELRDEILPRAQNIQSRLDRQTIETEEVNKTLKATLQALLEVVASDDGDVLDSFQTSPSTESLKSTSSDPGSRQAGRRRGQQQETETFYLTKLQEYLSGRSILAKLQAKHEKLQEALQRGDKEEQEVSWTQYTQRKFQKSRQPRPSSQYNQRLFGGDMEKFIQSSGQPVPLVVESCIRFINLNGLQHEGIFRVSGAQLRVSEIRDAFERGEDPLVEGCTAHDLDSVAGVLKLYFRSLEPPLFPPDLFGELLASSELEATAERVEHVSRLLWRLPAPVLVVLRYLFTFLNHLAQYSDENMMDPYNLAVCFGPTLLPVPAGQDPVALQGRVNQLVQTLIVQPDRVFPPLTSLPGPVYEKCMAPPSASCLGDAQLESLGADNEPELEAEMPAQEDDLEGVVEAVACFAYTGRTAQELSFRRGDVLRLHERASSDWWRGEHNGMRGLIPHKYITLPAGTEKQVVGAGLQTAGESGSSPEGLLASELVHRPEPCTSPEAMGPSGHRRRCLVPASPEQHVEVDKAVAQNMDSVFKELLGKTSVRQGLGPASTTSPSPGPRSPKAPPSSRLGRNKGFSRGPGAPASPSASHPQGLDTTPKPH
UniProt Q01484: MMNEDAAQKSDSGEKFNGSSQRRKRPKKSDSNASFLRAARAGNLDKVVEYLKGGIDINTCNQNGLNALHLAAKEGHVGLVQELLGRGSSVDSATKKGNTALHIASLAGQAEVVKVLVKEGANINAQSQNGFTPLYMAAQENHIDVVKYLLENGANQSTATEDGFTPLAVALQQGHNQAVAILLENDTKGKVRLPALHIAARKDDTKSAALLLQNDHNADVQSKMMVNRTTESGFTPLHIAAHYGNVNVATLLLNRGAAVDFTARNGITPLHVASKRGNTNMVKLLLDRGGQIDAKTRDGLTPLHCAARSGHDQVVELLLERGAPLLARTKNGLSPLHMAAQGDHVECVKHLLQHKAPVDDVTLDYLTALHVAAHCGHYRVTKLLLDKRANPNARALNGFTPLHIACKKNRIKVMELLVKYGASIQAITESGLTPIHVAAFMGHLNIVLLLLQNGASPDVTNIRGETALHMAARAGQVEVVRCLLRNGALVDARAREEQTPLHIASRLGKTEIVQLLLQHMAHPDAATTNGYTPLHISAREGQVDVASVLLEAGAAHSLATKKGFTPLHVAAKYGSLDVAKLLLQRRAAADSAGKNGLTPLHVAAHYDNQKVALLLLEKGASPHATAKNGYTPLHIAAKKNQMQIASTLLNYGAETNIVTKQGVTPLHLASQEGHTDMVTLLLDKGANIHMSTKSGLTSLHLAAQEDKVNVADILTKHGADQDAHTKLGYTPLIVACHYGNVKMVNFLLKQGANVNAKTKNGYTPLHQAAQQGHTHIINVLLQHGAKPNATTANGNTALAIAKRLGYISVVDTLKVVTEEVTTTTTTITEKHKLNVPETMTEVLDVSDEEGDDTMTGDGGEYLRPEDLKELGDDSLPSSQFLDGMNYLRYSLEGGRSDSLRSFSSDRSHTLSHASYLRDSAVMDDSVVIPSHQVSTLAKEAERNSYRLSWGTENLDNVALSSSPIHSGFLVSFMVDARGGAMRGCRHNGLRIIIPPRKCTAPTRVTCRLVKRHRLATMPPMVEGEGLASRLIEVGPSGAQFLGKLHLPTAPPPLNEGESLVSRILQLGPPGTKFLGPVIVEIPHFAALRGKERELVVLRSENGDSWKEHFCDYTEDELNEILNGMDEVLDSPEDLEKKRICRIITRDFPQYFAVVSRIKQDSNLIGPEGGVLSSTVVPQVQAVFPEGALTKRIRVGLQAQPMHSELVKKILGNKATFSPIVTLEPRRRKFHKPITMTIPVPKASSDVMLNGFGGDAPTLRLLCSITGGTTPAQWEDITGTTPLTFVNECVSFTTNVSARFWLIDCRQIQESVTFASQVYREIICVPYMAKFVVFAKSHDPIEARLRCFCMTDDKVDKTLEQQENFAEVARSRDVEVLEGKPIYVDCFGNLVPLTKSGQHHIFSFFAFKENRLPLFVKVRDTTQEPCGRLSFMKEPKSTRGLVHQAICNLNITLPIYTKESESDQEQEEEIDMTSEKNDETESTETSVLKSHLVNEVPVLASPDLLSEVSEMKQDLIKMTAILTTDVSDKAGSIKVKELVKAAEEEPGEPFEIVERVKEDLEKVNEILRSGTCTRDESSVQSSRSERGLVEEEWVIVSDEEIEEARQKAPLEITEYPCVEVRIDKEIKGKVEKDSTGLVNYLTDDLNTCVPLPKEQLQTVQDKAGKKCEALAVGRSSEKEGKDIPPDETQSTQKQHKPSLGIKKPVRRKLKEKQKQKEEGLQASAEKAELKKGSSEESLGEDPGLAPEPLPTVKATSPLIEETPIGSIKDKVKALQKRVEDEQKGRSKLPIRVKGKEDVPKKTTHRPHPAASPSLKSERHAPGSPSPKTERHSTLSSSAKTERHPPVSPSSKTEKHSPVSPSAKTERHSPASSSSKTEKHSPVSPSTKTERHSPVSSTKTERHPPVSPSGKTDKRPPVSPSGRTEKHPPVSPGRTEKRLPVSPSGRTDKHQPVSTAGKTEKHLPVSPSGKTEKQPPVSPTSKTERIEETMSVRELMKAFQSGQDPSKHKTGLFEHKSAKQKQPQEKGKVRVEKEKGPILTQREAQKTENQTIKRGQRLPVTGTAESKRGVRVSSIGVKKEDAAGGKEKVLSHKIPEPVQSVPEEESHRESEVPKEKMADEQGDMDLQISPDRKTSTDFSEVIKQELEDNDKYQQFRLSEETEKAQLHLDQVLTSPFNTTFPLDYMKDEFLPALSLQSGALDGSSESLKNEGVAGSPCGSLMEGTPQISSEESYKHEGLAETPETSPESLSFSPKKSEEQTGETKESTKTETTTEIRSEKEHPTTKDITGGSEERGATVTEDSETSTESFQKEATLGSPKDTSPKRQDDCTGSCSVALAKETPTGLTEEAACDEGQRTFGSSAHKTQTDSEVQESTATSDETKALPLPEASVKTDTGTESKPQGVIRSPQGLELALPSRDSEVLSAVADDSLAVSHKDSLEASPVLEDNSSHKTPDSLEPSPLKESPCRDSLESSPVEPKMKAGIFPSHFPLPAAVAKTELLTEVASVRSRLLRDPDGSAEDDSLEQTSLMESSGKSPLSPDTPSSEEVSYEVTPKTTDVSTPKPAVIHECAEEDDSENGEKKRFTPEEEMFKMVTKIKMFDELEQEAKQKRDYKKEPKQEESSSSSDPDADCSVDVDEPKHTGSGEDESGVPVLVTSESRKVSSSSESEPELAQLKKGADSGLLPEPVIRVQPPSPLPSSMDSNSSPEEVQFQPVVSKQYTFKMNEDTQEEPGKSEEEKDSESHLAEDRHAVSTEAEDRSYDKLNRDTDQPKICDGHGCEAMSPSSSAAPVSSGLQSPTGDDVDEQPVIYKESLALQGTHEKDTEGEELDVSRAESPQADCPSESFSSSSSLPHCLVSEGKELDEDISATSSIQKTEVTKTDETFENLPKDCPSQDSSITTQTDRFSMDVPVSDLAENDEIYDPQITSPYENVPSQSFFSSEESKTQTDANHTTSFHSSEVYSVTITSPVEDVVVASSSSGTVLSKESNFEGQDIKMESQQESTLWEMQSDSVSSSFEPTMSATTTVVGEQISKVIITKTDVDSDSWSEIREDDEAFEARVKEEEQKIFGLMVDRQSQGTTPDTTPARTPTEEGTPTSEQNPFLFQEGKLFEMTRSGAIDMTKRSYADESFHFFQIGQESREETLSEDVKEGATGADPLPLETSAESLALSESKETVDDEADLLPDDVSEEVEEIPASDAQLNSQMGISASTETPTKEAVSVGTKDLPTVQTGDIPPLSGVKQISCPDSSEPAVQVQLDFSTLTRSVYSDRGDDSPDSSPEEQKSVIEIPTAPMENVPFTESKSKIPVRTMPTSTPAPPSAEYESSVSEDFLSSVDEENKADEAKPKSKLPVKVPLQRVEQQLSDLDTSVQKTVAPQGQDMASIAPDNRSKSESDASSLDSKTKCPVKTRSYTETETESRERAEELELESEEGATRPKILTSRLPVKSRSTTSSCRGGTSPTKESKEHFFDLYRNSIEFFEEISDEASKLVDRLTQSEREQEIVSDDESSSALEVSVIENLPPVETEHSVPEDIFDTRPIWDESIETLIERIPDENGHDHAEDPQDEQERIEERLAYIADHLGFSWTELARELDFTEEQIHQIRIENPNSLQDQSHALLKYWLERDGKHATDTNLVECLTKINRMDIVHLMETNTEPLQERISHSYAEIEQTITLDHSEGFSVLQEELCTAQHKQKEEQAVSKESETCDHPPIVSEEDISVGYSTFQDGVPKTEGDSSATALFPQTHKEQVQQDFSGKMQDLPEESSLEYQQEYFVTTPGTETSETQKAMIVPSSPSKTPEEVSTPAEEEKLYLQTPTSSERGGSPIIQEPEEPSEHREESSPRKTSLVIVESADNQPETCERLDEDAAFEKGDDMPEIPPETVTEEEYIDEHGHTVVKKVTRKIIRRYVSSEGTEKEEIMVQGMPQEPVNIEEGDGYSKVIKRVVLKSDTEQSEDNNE
UniProt Q9HCJ1: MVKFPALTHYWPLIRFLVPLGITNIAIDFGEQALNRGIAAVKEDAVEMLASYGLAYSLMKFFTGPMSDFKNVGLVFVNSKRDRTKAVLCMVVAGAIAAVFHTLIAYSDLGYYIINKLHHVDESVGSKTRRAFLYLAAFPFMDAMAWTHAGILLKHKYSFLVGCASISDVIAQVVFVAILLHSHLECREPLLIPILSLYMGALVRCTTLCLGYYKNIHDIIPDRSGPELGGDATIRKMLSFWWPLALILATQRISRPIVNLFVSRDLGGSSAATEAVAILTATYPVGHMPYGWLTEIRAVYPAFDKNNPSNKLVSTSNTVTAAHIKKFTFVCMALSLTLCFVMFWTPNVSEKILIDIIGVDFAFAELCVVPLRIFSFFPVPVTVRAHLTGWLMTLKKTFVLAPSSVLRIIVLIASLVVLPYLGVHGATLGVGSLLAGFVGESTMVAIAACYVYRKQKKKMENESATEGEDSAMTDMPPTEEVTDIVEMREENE
UniProt Q9BTT0: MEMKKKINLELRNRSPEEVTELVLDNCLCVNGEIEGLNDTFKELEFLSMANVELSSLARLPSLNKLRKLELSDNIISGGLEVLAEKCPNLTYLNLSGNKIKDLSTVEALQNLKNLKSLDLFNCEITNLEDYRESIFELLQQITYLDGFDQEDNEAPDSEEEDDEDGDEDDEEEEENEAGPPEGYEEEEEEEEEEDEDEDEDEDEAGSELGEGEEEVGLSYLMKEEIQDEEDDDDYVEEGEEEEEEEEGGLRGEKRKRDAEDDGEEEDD

Columns and labels:
Test in all cases: log2 fold change, soluble protein after heating vs DMSO (PISA); higher = thermal stabilisation; K562 cells, 10 uM, 30 min; active = over 0.2 and 3.5 SD of the protein, either way, in both replicates (recomputed)
[1] = compound: CC[C@@H]1C(=O)N(C)c2cnc(Nc3ccc(C(=O)NC4CCN(C)CC4)cc3OC)nc2N1C1CCCC1
Summary of the method: (§1)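 K562 cells at 2×10^6 cells/mL were treated for 30 min with 10 μM compound, and aliquots were heated for 3 min over 48°C-58°C before pooling. Extraction used PBS with 0.5% NP-40 at 4°C, and soluble protein was the supernatant after 21,000xg for 90 min, measured by TMTpro 16plex LC-MS/MS with channel sums equalised. Thermal stability values, relative to control samples and from duplicates, are log2 fold changes.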

[2] = compound: CC[C@@H]1C(=O)N(C)c2cnc(Nc3ccc(C(=O)N[C@H]4CC[C@H](N5CCN(CC6CC6)CC5)CC4)cc3OC)nc2N1C(C)C [volasertib]
Summary of the method: as §1

[3] = compound: CC[C@H](C)N1C=C(C2=C(C=C(C=C21)C3=CN=C(C=C3)N4CCNCC4)C(=O)NCC5=C(C=C(NC5=O)C)C)C
Summary of the method: as §1

[4] = compound: CC[C@H](C)[C@@H](C(=O)N[C@@H]([C@@H](C)O)C(=O)N[C@@H](CC(C)C)C(=O)[C@]1(CO1)C)NC(=O)[C@H]([C@@H](C)CC)N(C)C(=O)C [epoxomicin]
Summary of the method: as §1

[5] = compound: CN(C)CC(=O)Nc1ccc2[nH]c(=O)c3ccccc3c2c1
Summary of the method: as §1

[6] = compound: CN1C2=C(C3=C1C(=O)N(N=C3)CC4=CC(=CC=C4)N)SC(=C2)S(=O)C
Summary of the method: as §1

[7] = compound: CN1CCN(CCOc2cc(OC3CCOCC3)c3c(Nc4c(Cl)ccc5c4OCO5)ncnc3c2)CC1 [saracatinib]
Summary of the method: as §1

[8] = compound: CN1CCN(c2nc(C3=C(c4c[nH]c5ccccc45)C(=O)NC3=O)c3ccccc3n2)CC1 [sotrastaurin]
Summary of the method: as §1

[9] = compound: CNC(=O)C1=CC=CC=C1NC2=NC(=NC=C2Cl)NC3=C(C=C(C=C3)N4CCOCC4)OC
Summary of the method: as §1

[10] = compound: CNC(=O)c1ccc(Nc2ncc(C(F)(F)F)c(NCc3nccnc3N(C)S(C)(=O)=O)n2)cc1 [defactinib]
Summary of the method: as §1

[11] = compound: CNCc1ccc(-c2[nH]c3cc(F)cc4c3c2CCNC4=O)cc1 [rucaparib]
Summary of the method: as §1

[12] = compound: CNc1nc(-c2ccc3c(N)n[nH]c3c2)cc(N2C[C@@H](C(=O)NC3CCCCC3)CC[C@H]2C)n1
Summary of the method: as §1

[13] = compound: COC(=O)N[C@@H](C)CNc1nccc(-c2cn(C(C)C)nc2-c2cc(Cl)cc(NS(C)(=O)=O)c2F)n1 [encorafenib]
Summary of the method: as §1

[14] = compound: COC(=O)[C@H](CCSC)NC(=O)C1=C(C=C(C=C1)NC[C@H](CS)N)C2=CC=CC=C2
Summary of the method: as §1

[15] = compound: CCn1cc(-c2ccnc3[nH]c(-c4cccc(CN(C)C)c4)cc23)c(-c2ccc(NC(=O)N(C)C)cc2)n1
Summary of the method: as §1

[16] = compound: CN1CCC(CNc2ccc3ncc(-c4cccc(OC(F)(F)F)c4)n3n2)CC1
Summary of the method: as §1

[17] = compound: CN1CCc2c(c3ccccc3n2Cc2ccc(C(=O)NO)cc2)C1 [Tubastatin A]
Summary of the method: as §1

[18] = compound: CN1CC[C@H](c2c(O)cc(O)c3c(=O)cc(-c4ccccc4Cl)oc23)[C@H](O)C1 [alvocidib]
Summary of the method: as §1

[19] = compound: CCn1c(C(=O)N(C2CC2)C2CC2)cc2c3c(ncn3C)c(Nc3cc(C)n(C)n3)nc21
Summary of the method: as §1

Measured: log2 fold change

AP4S1 (UniProt Q9Y587)
inactive: [1] -0.117 | [2] -0.321 | [3] 0.059 | [4] -0.006 | [5] 0.027 | [6] 0.078 | [7] -0.08 | [8] -0.117 | [9] -0.05 | [10] 0.059 | [11] 0.039 | [12] -0.072 | [13] 0.073 | [14] 0.008

APH1A (UniProt Q96BI3)
inactive: [1] -0.023 | [2] 0.031 | [3] 0.004 | [15] 0.026 | [5] 0.19 | [6] 0.034 | [16] 0.03 | [7] 0.025 | [8] 0.131 | [17] 0.097 | [9] -0.047 | [10] -0.089 | [11] 0.002 | [12] -0.01 | [13] 0 | [14] -0.111

ARHGAP4 isoform 2 (UniProt P98171)
inactive: [1] -0.044 | [2] -0.112 | [3] 0.048 | [5] 0.036 | [7] -0.094 | [8] 0.115 | [17] -0.172 | [9] -0.096 | [10] 0.22 | [11] -0.062 | [12] -0.139 | [13] 0.047 | [14] 0.097
active: [6] 0.757

Looked up one by one from above (two):
AP4S1 (UniProt Q9Y587)
inactive: [1] -0.117 | [2] -0.321 | [3] 0.059 | [4] -0.006 | [5] 0.027 | [6] 0.078 | [7] -0.08 | [8] -0.117 | [9] -0.05 | [10] 0.059 | [11] 0.039 | [12] -0.072 | [13] 0.073 | [14] 0.008

APH1A (UniProt Q96BI3)
inactive: [1] -0.023 | [2] 0.031 | [3] 0.004 | [15] 0.026 | [5] 0.19 | [6] 0.034 | [16] 0.03 | [7] 0.025 | [8] 0.131 | [17] 0.097 | [9] -0.047 | [10] -0.089 | [11] 0.002 | [12] -0.01 | [13] 0 | [14] -0.111

Further entries.

ARFGEF1 (UniProt Q9Y6D6)
inactive: [1] -0.022 | [2] -0.248 | [3] 0.01 | [4] 0.033 | [15] 0.011 | [5] -0.005 | [6] -0.037 | [16] -0.046 | [7] 0.037 | [8] 0.039 | [17] 0.013 | [9] 0.094 | [10] 0.007 | [11] 0.011 | [12] 0.059 | [13] 0.048 | [14] -0.038

ANKZF1 (UniProt Q9H8Y5)
inactive: [1] -0.063 | [2] -0.055 | [3] 0.036 | [4] -0.001 | [15] 0.004 | [5] -0.076 | [6] 0.214 | [16] 0.066 | [7] -0.146 | [8] -0.093 | [17] 0.088 | [9] 0.04 | [10] 0.123 | [11] 0.167 | [12] 0.156 | [13] 0.119 | [14] -0.274

AP1B1 isoform 3 (UniProt Q10567)
inactive: [1] 0.054 | [2] -0.11 | [3] -0.005 | [4] 0.186 | [15] 0.042 | [5] 0.027 | [6] 0.12 | [16] -0.188 | [7] -0.051 | [18] -0.085 | [17] 0.079 | [10] -0.234 | [11] -0.141 | [12] -0.04 | [13] 0.058 | [14] 0.058

ANK2 (UniProt Q01484)
inactive: [1] 0.049 | [2] -0.071 | [3] -0.003 | [15] 0.122 | [5] -0.018 | [6] -0.128 | [16] -0.223 | [7] 0.24 | [8] 0.05 | [17] -0.122 | [9] 0.05 | [10] -0.057 | [11] -0.019 | [12] -0.095 | [13] -0.106 | [14] -0.041

ANKH (UniProt Q9HCJ1)
inactive: [1] 0.198 | [2] 0.19 | [3] -0.297 | [19] 0.026 | [15] 0.044 | [6] -0.098 | [16] -0.366 | [7] -0.254 | [9] 0 | [11] -0.32 | [12] -0.041 | [13] -0.05

ANP32E (UniProt Q9BTT0)
active: [2] -0.499
inactive: [1] -0.132 | [3] 0.04 | [4] 0.054 | [15] -0.128 | [5] -0.051 | [6] -0.058 | [16] -0.147 | [7] 0.006 | [8] -0.105 | [17] 0.052 | [9] 0.041 | [10] -0.239 | [11] -0.108 | [12] -0.06 | [13] 0.159 | [14] -0.022

APAF1 (UniProt O14727)
inactive: [1] -0.123 | [2] -0.076 | [3] 0.187 | [4] -0.045 | [15] -0.009 | [5] 0.037 | [6] 0.148 | [16] -0.088 | [7] -0.088 | [8] 0 | [9] 0.109 | [10] 0.082 | [11] 0.103 | [12] 0.032 | [13] 0.158 | [14] 0.05
